From ChEMBL document CHEMBL5674883, “The Heterochromatin Landscape in Migrating Cells and the Importance of H3K27me3 for Associated Transcriptome Alterations” (Cells, 2018)
This continues a long series; more values of the same kind are listed elsewhere.

Chains of the proteins cited; added tags and fusions are not shown.
UniProt Q61188, whole entry: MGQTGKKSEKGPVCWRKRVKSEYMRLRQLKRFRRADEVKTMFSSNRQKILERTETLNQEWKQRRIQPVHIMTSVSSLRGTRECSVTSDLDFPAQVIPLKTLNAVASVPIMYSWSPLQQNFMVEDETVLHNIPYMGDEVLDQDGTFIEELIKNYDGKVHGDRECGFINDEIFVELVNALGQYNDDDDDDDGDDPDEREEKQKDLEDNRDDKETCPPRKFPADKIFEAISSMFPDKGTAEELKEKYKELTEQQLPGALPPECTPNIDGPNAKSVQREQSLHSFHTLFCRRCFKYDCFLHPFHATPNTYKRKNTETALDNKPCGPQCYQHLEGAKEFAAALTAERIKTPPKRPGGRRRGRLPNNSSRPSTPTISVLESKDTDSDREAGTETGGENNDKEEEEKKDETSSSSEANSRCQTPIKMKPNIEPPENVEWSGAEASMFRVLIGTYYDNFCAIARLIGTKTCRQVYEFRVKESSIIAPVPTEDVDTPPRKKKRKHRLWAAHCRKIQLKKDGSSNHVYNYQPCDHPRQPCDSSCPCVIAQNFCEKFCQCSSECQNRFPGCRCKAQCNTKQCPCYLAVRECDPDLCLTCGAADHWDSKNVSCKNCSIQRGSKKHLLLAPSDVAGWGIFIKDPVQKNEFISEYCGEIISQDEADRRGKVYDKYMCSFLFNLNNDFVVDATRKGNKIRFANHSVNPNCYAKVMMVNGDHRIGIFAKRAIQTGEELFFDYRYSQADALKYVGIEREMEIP

Experiments:
Type in all cases: cell-based
[1] = target: T1, RNA polymerase II (Mus musculus) (UniProt P08775+Q8CFI7+P97760+A0A3Q4L2S8+Q80UW8+P61219+P62488+Q923G2+P60898+O08740+Q63871+P62876); assay: Inhibition of RNA polymerase II in mouse B16-F1 migrating cells assessed as fold change in Vhl-RNA stability at 0.1 mM measured by ChIP-seq analysis relative to control cells
[2] = target: T1, RNA polymerase II (Mus musculus); assay: Inhibition of RNA polymerase II in mouse B16-F1 migrating cells assessed as fold change in Slc2a1-RNA stability at 0.1 mM measured by ChIP-seq analysis relative to control cells
[3] = target: T1, RNA polymerase II (Mus musculus); assay: Inhibition of RNA polymerase II in mouse B16-F1 migrating cells assessed as fold change in Bsg-RNA stability at 0.1 mM measured by ChIP-seq analysis relative to control cells
[4] = target: T1, RNA polymerase II (Mus musculus); assay: Inhibition of RNA polymerase II in mouse B16-F1 migrating cells assessed as fold change in Gstp2-RNA stability at 0.1 mM measured by ChIP-seq analysis relative to control cells
[5] = target: T1, RNA polymerase II (Mus musculus); assay: Inhibition of RNA polymerase II in mouse B16-F1 migrating cells assessed as fold change in Mboat2-RNA stability at 0.1 mM measured by ChIP-seq analysis relative to control cells
[6] = target: T1, RNA polymerase II (Mus musculus); assay: Inhibition of RNA polymerase II in mouse B16-F1 migrating cells assessed as fold change in Mapk8ip1-RNA stability at 0.1 mM measured by ChIP-seq analysis relative to control cells
[7] = target: T1, RNA polymerase II (Mus musculus); assay: Inhibition of RNA polymerase II in mouse B16-F1 migrating cells assessed as fold change in Acsf3-RNA stability at 0.1 mM measured by ChIP-seq analysis relative to control cells
[8] = target: T1, RNA polymerase II (Mus musculus); assay: Inhibition of RNA polymerase II in mouse B16-F1 migrating cells assessed as fold change in Tbc1d31-RNA stability at 0.1 mM measured by ChIP-seq analysis relative to control cells
[9] = target: T1, RNA polymerase II (Mus musculus); assay: Inhibition of RNA polymerase II in mouse B16-F1 migrating cells assessed as fold change in Rad51ap1-RNA stability at 0.1 mM measured by ChIP-seq analysis relative to control cells
[10] = target: T1, RNA polymerase II (Mus musculus); assay: Inhibition of RNA polymerase II in mouse B16-F1 migrating cells assessed as fold change in Sept10-RNA stability at 0.1 mM measured by ChIP-seq analysis relative to control cells
[11] = target: T1, RNA polymerase II (Mus musculus); assay: Inhibition of RNA polymerase II in mouse B16-F1 migrating cells assessed as fold change in Fem1b-RNA stability at 0.1 mM measured by ChIP-seq analysis relative to control cells
[12] = target: T1, RNA polymerase II (Mus musculus); assay: Inhibition of RNA polymerase II in mouse B16-F1 migrating cells assessed as fold change in Ktn1-RNA stability at 0.1 mM measured by ChIP-seq analysis relative to control cells
[13] = target: T1, RNA polymerase II (Mus musculus); assay: Inhibition of RNA polymerase II in mouse B16-F1 migrating cells assessed as fold change in Top2b-RNA stability at 0.1 mM measured by ChIP-seq analysis relative to control cells
[14] = target: T1, RNA polymerase II (Mus musculus); assay: Inhibition of RNA polymerase II in mouse B16-F1 migrating cells assessed as fold change in Zranb2-RNA stability at 0.1 mM measured by ChIP-seq analysis relative to control cells
[15] = target: T1, RNA polymerase II (Mus musculus); assay: Inhibition of RNA polymerase II in mouse B16-F1 migrating cells assessed as fold change in Trove2-RNA stability at 0.1 mM measured by ChIP-seq analysis relative to control cells
[16] = target: T1, RNA polymerase II (Mus musculus); assay: Inhibition of RNA polymerase II in mouse B16-F1 migrating cells assessed as fold change in Lztfl1-RNA stability at 0.1 mM measured by ChIP-seq analysis relative to control cells
[17] = target: T1, RNA polymerase II (Mus musculus); assay: Inhibition of RNA polymerase II in mouse B16-F1 migrating cells assessed as fold change in Slf1-RNA stability at 0.1 mM measured by ChIP-seq analysis relative to control cells
[18] = target: T1, RNA polymerase II (Mus musculus); assay: Inhibition of RNA polymerase II in mouse B16-F1 migrating cells assessed as fold change in Hmgb2-RNA stability at 0.1 mM measured by ChIP-seq analysis relative to control cells
[19] = target: T1, RNA polymerase II (Mus musculus); assay: Inhibition of RNA polymerase II in mouse B16-F1 migrating cells assessed as fold change in Mis18bp1-RNA stability at 0.1 mM measured by ChIP-seq analysis relative to control cells
[20] = target: T1, RNA polymerase II (Mus musculus); assay: Inhibition of RNA polymerase II in mouse B16-F1 migrating cells assessed as fold change in Gorab-RNA stability at 0.1 mM measured by ChIP-seq analysis relative to control cells
[21] = target: T1, RNA polymerase II (Mus musculus); assay: Inhibition of RNA polymerase II in mouse B16-F1 migrating cells assessed as fold change in Edaradd-RNA stability at 0.1 mM measured by ChIP-seq analysis relative to control cells
[22] = target: Histone-lysine N-methyltransferase EZH2 (Mus musculus) (UniProt Q61188); assay: Inhibition of EZH2 in mouse B16-F1 migrating cells assessed as fold change in H3K27me3-buffered regulated Nptx1-mRNA expression at 3 uM measured by ChIP-seq analysis relative to control cells
[23] = target: Histone-lysine N-methyltransferase EZH2 (Mus musculus) (UniProt Q61188); assay: Inhibition of EZH2 in mouse B16-F1 migrating cells assessed as fold change in H3K27me3-buffered regulated Grhpr-mRNA expression at 3 uM measured by ChIP-seq analysis relative to control cells
[24] = target: Histone-lysine N-methyltransferase EZH2 (Mus musculus) (UniProt Q61188); assay: Inhibition of EZH2 in mouse B16-F1 migrating cells assessed as fold change in H3K27me3-buffered regulated Slc7a11-mRNA expression at 3 uM measured by ChIP-seq analysis relative to control cells
[25] = target: Histone-lysine N-methyltransferase EZH2 (Mus musculus) (UniProt Q61188); assay: Inhibition of EZH2 in mouse B16-F1 migrating cells assessed as fold change in H3K27me3-buffered regulated Etaa1-mRNA expression at 3 uM measured by ChIP-seq analysis relative to control cells
[26] = target: Histone-lysine N-methyltransferase EZH2 (Mus musculus) (UniProt Q61188); assay: Inhibition of EZH2 in mouse B16-F1 migrating cells assessed as fold change in H3K27me3-buffered regulated Upf3b-mRNA expression at 3 uM measured by ChIP-seq analysis relative to control cells
[27] = target: Histone-lysine N-methyltransferase EZH2 (Mus musculus) (UniProt Q61188); assay: Inhibition of EZH2 in mouse B16-F1 migrating cells assessed as fold change in H3K27me3-buffered regulated Zfp326-mRNA expression at 3 uM measured by ChIP-seq analysis relative to control cells
[28] = target: Histone-lysine N-methyltransferase EZH2 (Mus musculus) (UniProt Q61188); assay: Inhibition of EZH2 in mouse B16-F1 migrating cells assessed as fold change in H3K27me3-buffered regulated Fgd6-mRNA expression at 3 uM measured by ChIP-seq analysis relative to control cells
[29] = target: Histone-lysine N-methyltransferase EZH2 (Mus musculus) (UniProt Q61188); assay: Inhibition of EZH2 in mouse B16-F1 migrating cells assessed as fold change in H3K27me3-buffered regulated Ints6l-mRNA expression at 3 uM measured by ChIP-seq analysis relative to control cells
[30] = target: Histone-lysine N-methyltransferase EZH2 (Mus musculus) (UniProt Q61188); assay: Inhibition of EZH2 in mouse B16-F1 migrating cells assessed as fold change in H3K27me3-buffered regulated Rcor2-mRNA expression at 3 uM measured by ChIP-seq analysis relative to control cells

## OC[C@H]1O[C@@H](n2cnc3cc(Cl)c(Cl)cc32)[C@H](O)[C@@H]1O
[1]
  log2FC: 0.82
[2]
  log2FC: 0.68
[3]
  log2FC: 0.68
[4]
  log2FC: 0.62
[5]
  log2FC: 0.61
[6]
  log2FC: 0.57
[7]
  log2FC: 0.56
[8]
  log2FC: -0.42
[9]
  log2FC: -0.45
[10]
  log2FC: -0.45
[11]
  log2FC: -0.5
[12]
  log2FC: -0.62
[13]
  log2FC: -0.63
[14]
  log2FC: -0.66
[15]
  log2FC: -0.67
[16]
  log2FC: -0.83
[17]
  log2FC: -0.85
[18]
  log2FC: -0.85
[19]
  log2FC: -0.91
[20]
  log2FC: -0.99
[21]
  log2FC: -1.22

## CCCc1cc(C)[nH]c(=O)c1CNC(=O)c1cc(-c2ccnc(N3CCN(C)CC3)c2)cc2c1cnn2C(C)C
[22]
  log2FC: 1.14
[23]
  log2FC: 0.51
[24]
  log2FC: 0.44
[25]
  log2FC: -0.4
[26]
  log2FC: -0.4
[27]
  log2FC: -0.42
[28]
  log2FC: -0.44
[29]
  log2FC: -0.51
[30]
  log2FC: -0.6
